In the supplement of paper PMC5407854, “Inhibitor of ppGalNAc-T3-mediated O-glycosylation blocks cancer cell invasiveness and lowers FGF23 levels” (eLife, 2017):
This is one part of the list. Most entries show no effect beyond the scatter of the controls.

Assays:
[1] = test system: ppGalNAc-T3 sensor; test: T3 sensor activation Q score (MG/GFP ratio z-score vs DMSO controls) (SD units); higher = more sensor activation (inhibition of ppGalNAc-T3 glycosylation); conditions: HEK293 sensor cells; 10 µM; 6 h
Description: (§1)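 Cells were treated with compound at 10 uM for 6 h, then MG/GFP ratio was read by flow cytometry (10,000 cells per well, duplicate wells). Q = (R - R_neg)/SD_neg relative to DMSO vehicle controls; the signal rises when the glycosyltransferase is inhibited.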

[2] = test system: ppGalNAc-T2 sensor; test: T2 sensor activation Q score (MG/GFP ratio z-score vs DMSO controls) (SD units); higher = more sensor activation (inhibition of ppGalNAc-T2 glycosylation); conditions: HEK293 sensor cells; 10 µM; 6 h
Description: as §1

| Structure (SMILES) | T3 sensor activation Q score [1] | T2 sensor activation Q score [2] |
| --- | --- | --- |
| O=[N+]([O-])c1ccc(N2CCN(Cc3ccc(Br)o3)CC2)cc1 | 0.475 | 1.17 |
| O=CN1N=C(c2ccccc2)CC1c1ccccc1 (stereo not drawn) | 0.57 | -1.28 |
| COc1ccccc1N1CCN(S(=O)(=O)c2ccc(Cl)cc2)CC1 | 0.15 | 1.38 |
| CC(C)(C)c1nc(CN2CCCCC2)cc(CN2CCCCC2)c1O | 0.15 | -1.36 |
